Reference: article PMC7772773
These are yes or no findings as the source states them, for the method shown. Binding seen in cells or lysates may run through a third protein. Some entries that bind do so weakly or less than the wild type. Sequences can lack the tags named with a protein.

The chains behind the UniProt entries cited, without tags or fusion partners. Where a name states a change or a piece, a line headed by the entry shows the natural chain unless it says otherwise. A line that says so, or that is headed by a name, gives the form on record, which may keep a tag or linker.
UniProt Q9R1C8: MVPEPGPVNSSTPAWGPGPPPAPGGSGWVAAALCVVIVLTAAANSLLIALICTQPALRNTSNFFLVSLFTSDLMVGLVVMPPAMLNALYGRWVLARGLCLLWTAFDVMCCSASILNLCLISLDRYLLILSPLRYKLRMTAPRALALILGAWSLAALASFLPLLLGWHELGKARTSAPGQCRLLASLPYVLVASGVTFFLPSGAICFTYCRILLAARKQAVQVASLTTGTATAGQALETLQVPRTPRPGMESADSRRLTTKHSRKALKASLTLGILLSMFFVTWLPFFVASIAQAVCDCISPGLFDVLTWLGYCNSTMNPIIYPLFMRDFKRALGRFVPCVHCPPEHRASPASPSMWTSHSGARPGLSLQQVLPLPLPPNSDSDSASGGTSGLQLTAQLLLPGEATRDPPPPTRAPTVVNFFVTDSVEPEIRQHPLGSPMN
myc-HTR6(CT-mut3) (Q9R1C8, form named): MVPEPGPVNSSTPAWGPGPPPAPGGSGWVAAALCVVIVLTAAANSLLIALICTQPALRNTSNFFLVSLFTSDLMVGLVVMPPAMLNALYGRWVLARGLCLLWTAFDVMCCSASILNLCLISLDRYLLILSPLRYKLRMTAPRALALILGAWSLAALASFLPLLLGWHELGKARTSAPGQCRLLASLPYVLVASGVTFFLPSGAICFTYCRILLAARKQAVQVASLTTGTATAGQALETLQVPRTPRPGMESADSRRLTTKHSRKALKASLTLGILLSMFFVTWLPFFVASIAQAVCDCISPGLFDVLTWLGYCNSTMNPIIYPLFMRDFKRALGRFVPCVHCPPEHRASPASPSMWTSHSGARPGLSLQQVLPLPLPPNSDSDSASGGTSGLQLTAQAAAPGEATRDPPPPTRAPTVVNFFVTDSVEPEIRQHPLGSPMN
myc-HTR6(IC3-mut4) (Q9R1C8, form named): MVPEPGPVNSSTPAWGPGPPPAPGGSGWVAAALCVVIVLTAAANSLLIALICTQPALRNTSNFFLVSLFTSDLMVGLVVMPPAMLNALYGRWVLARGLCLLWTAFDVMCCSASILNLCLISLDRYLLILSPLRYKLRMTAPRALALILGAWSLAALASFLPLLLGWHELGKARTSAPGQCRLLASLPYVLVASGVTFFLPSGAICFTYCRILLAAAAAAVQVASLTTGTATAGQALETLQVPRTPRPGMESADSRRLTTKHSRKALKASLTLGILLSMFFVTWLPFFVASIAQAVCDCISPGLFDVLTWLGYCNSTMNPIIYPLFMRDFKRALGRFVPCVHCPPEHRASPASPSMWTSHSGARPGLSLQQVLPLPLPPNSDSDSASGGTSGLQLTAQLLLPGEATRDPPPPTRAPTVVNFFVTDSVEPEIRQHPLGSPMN
myc-HTR6(IC3-mut4+CT-mut3) (Q9R1C8, form named): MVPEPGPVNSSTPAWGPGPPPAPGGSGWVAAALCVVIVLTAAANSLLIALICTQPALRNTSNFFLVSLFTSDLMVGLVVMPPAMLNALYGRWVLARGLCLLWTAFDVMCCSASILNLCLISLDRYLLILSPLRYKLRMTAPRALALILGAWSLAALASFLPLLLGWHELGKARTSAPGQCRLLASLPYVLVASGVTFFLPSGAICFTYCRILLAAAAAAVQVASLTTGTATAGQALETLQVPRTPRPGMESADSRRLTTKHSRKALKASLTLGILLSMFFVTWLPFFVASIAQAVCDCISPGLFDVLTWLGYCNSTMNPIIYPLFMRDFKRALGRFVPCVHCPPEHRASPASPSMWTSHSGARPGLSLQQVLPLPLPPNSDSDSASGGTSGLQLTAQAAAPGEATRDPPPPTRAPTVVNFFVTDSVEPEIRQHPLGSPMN

How the values were obtained:
[1] = target: T1, EGFP-RABL2B (human) (UniProt Q9UNT1); test: co-IP; HEK293T lysates (50 mM Tris–HCl pH 7.5, 150 mM NaCl, 0.5 mM EDTA, 1% Igepal CA-630); EGFP-RABL2B precipitated with GFP-Trap_MA beads, 2 h at 4°C; co-precipitated myc- or Flag-tagged HTR6 constructs detected by Western blot; in Fig 12K with coexpressed TULP3-myc, TULP3-KR-myc (K268A+R270A) or myc-B9D1
T1 sequence: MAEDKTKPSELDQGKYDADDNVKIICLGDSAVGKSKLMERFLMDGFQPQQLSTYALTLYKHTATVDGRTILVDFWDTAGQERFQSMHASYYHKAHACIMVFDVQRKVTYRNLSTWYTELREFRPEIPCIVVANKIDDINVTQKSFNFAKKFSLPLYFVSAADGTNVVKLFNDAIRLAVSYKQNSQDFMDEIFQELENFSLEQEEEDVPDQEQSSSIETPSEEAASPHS

[2] = target: T2, Flag-RABL2B (human) (UniProt Q9UNT1); test: co-IP; HEK293T lysates (50 mM Hepes pH 7.5, 150 mM NaCl, 5 mM MgCl2, 0.5% NP-40, 1 mM DTT); Flag-RABL2B precipitated with anti-Flag agarose beads, 2 h at 4°C, from 2 mg of total protein; blots with anti-HTR6 and anti-Flag antibodies
T2 sequence: T1 sequence

| Substance | binding [1] | binding [2] |
| --- | --- | --- |
| HTR6-Flag (from UniProt Q9R1C8 1-440) (receptor) | binds | – |
| myc-HTR6 (from UniProt Q9R1C8 1-440) (receptor) | binds | binds |
| myc-HTR6(CT-mut3) (from UniProt Q9R1C8 1-440) (receptor) | binds | binds |
| myc-HTR6(IC3-mut4) (from UniProt Q9R1C8 1-440) (receptor) | binds | – |
| myc-HTR6(IC3-mut4+CT-mut3) (from UniProt Q9R1C8 1-440) (receptor) | binds | – |
